Here are results for 40 compounds from PubChem BioAssay AID2685 (National Center for Advancing Translational Sciences (NCATS), 2010).

For orientation: AC50 means the concentration giving half of the maximal activity seen.

The other results are listed elsewhere or left out. Further columns of the screen follow, without active or inactive calls. Compounds called inactive in the main read-out are mostly missing here. The note in brackets gives the kind of curve behind each potency; many fits are weak.

A short description of this experiment: qHTS Assay for Lipid Storage Modulators in Drosophila S3 Cells.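 As to cell number change: cells counted by Cell Tracker Red CMTPX staining in the red channel.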 The conditions noted are these: BODIPY lipid droplet fluorescence, 18-24 h; for cell number change: measured here: cell count max response, cells fed with added oleic acid. The essentials:
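Drosophila S3 cells loaded with oleic acid (400 uM, as added) and compounds at several concentrations; lipid droplets imaged by 488-nm laser-scanning cytometry, 500–530 nm intensity and object ratio to cell channel. Percent activity normalized to 20 uM Triacsin C.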

Where [1] appears, read: measured here: cell number channel AC50, cells fed with added oleic acid.
[2] abbreviates: measured here: lipid fluorescence (Fed channel) AC50, cells fed with added oleic acid.

For `CCOC(=O)c1[nH]c(C)c(C(=O)OCC(=O)Nc2sc3c(c2C#N)CCCCC3)c1C`, the cell number change came out at 35%. Also, the AC50 under setting [1] was 23.1 µM [rising, single point].
On to `CCCCC(CC)CNC(=O)C1C2C=CC(C2)C1C(=O)O` (stereo not given), for which the cell number change was determined as 16.5%. Besides, the AC50 under setting [2] is 2.06 µM [falling, partial curve].
On to `CCOc1c(OC)cccc1C1CC(=O)Nc2cc3c(cc21)OCCO3` (stereo not given), for which the AC50 under setting [1] was 0.651 µM [falling, single point].
Consider `CCc1ccc(NC(=O)CC2C(=O)NCCN2C(=O)c2ccc(F)cc2)cc1` (stereo not given), for which the cell number change was found to be 17.4%. The AC50 under setting [2] is 23.1 µM [rising, single point].
On to `Cc1cc2oc(C(=O)N(Cc3cccs3)C3CCS(=O)(=O)C3)cc(=O)c2cc1Cl` (stereo not given), for which the cell number change was found to be 20.8%. Besides, the AC50 under setting [1] was 0.517 µM [rising, full curve, poor fit]. Also, the AC50 under setting [2] is 1.3 µM [rising, full curve].
Regarding `CCc1cc(Cn2nc(-c3ccccc3)cc2C(=O)NCc2cccs2)on1`, the cell number change was -1.06%. Besides, the concentration at half-maximal activity (AC50) under setting [1] was 0.164 µM [falling, full curve]. Besides, under setting [2], the AC50 is 0.116 µM [falling, full curve, poor fit].
`Cc1ccc(NC(=O)CN2C(=O)NC(C)(c3ccc(Cl)cc3)C2=O)cc1` (stereo not given): the cell number change was determined as 8.4%.
On the same count and under the same terms, the result for `CCOC(=O)c1nc(C)n(-c2cc(OC)c(Cl)cc2Cl)n1` reads -25.8%.
For the compound `CC1(C)CC(=O)C=C(NNC(=O)c2cccnc2)C1`, the cell number change turned out to be 4.92%. Also, the AC50 under setting [2] was 2.31 µM [falling, single point].
With `CCN(C(=O)CSc1nc2c(cnn2-c2ccccc2)c(=O)[nH]1)C1CCS(=O)(=O)C1` (stereo not given), the cell number change was -13.8%. Also, the AC50 under setting [2] was 0.13 µM [falling, full curve].
On to `CC(NCC(O)COc1ccc(S(=O)(=O)N2CCOCC2)cc1)c1ccccc1` (stereo not given), for which, under setting [2], the AC50 is 2.59 µM [rising, single point].
Regarding `NS(=O)(=O)c1ccc(NC(=O)CCCC(=O)O)cc1`, the cell number change is -24.5%. Further, the AC50 under setting [2] is 2.91 µM [falling, full curve].
Regarding `CC1=C(C(=O)Nc2cccnc2)C(c2ccc3c(c2)OCO3)C2=C(CCCC2=O)N1` (stereo not given), the cell number change is 46.5%. Moreover, the AC50 under setting [1] is 14.6 µM [rising, partial curve].
Turning to `Cc1nnc(SCC(=O)NCc2ccccc2Cl)[nH]c1=O`, the AC50 is, setting by setting: under setting [1], 6.51 µM [falling, single point]; under setting [2], 4.11 µM [falling, single point].
Turning to `CCc1cc(C(=O)NNC(=S)NC(C)c2ccccc2)cs1` (stereo not given), the cell number change was -90.2%. Moreover, the AC50 under setting [1] was 29.1 µM [falling, single point]. Further, under setting [2], the AC50 was 20.6 µM [falling, single point].
For the compound `CCOC(=O)c1cc(NC(=O)c2ccc(OC)cc2)c(=O)oc1-c1ccccc1`, the cell number change is -5.5%.
Consider `CCc1cc(=O)oc2cc(OCC(=O)NCC3CCC(C(=O)O)CC3)ccc12` (stereo not given), for which the AC50 under setting [2] is 18.4 µM [rising, partial curve].
Regarding `N#CCc1nc(C(c2ccccc2)c2ccccc2)no1`, the cell number change is 57.9%. The AC50 under setting [1] is 16.4 µM [rising, single point]. Also, the AC50 under setting [2] was 29.1 µM [falling, single point].
For `CC(c1n[nH]c(=S)n1-c1ccccc1)N1CCCCC1` (stereo not given), the cell number change was -25.5%.
Turning to `Cc1cc(C)c2c(N)c(C(=O)N3CCCCCC3)sc2n1`, the cell number change came to 18.6%.
In the case of `CCN1C(=O)c2cccc3c(S(=O)(=O)Nc4ccccc4OC)ccc1c23`, the cell number change is -28.6%. Besides, the concentration at half-maximal activity (AC50) under setting [2] was 10.3 µM [falling, partial curve].
For the compound `S=C(NCc1ccco1)Nc1cc(Cl)c(Cl)cc1Cl`, the cell number change is -32.3%. The AC50 under setting [1] was 11.6 µM [falling, partial curve]. In addition, the AC50 under setting [2] was 14.6 µM [falling, partial curve].
`O=C(Nc1nccs1)c1sc2ccccc2c1Cl`: the AC50 under setting [2] is 0.731 µM [rising, partial curve, poor fit].
Regarding `COC(=O)c1c(-c2ccccc2)nn(-c2ccccc2)c1C(=O)OC`, the cell number change is -8.76%. Under setting [2], the AC50 was 6.51 µM [rising, single point].
As for `C=CCN(CC=C)C(=O)C[n+]1ccc(C(N)=O)cc1`, the cell number change was -26.5%. In addition, under setting [1], the half-maximal activity concentration (AC50) was 0.326 µM [falling, full curve, poor fit].
Take `Cc1nn(-c2ccc(F)cc2)c(Cl)c1/C=N/NC(=O)c1cccc(S(=O)(=O)N2CCCC2)c1`: the cell number change is 7.54%.
Same read-out and setting: under `CC(=O)Nc1ccc(S(=O)(=O)N(C)CC(=O)Nc2nc3ccccc3[nH]2)cc1` stands 2.81%.
`COc1ccc(C(=O)NCc2ccc(N3CCN(C(=O)OC(C)(C)C)CC3)cc2)cc1`: the AC50 under setting [1] is 1.64 µM [rising, partial curve, poor fit].
For `CCN1CCN(C(c2ccc(OC)cc2)C(O)C(=O)c2c[nH]c3ccccc23)CC1` (stereo not given), the cell number change was -9.24%. Besides, under setting [2], the AC50 is 1.84 µM [falling, partial curve, poor fit].
Turning to `Cc1ccc(NC(=O)CN(C)Cc2ccc(F)cc2)c([N+](=O)[O-])c1`, the cell number change was 6.45%. Also, the AC50 under setting [2] is 0.103 µM [rising, full curve, poor fit].
As to `Cc1ccc(C)c(NC(=O)C(CC(=O)O)C2CCCO2)c1` (stereo not given), the cell number change amounted to 21.5%.
Consider `CCOc1ccc2[nH]c(=O)c(CN(CCOC)C(=O)N3CCOCC3)cc2c1`, for which the cell number change was 28.3%. In addition, under setting [2], the AC50 is 29.1 µM [rising, single point].
`COc1ccc(C)cc1S(=O)(=O)Nc1cccc(C)c1`: the AC50 under setting [1] was 0.103 µM [rising, full curve, poor fit].
As for `CCc1ccc(C(=O)COC(=O)CNC(=O)Cc2ccccc2)cc1`, the cell number change is -17.3%.
In the case of `CC1CN(C2CCN(S(=O)(=O)c3ccc4ccccc4c3)CC2)CC(C)O1` (stereo not given), the cell number change was -25.8%. For the same compound, the AC50 under setting [2] was 0.146 µM [falling, full curve, poor fit].
Turning to `COc1ccc(NS(=O)(=O)c2ccc(NC(=O)c3ccc(N(C)S(C)(=O)=O)cc3)cc2)cc1`, the cell number change is -9.92%. The AC50 under setting [2] is 10.3 µM [falling, partial curve].
For the compound `CCCCOc1ccc(C(=O)NN2C(=O)NC3(CCCCC3)C2=O)cc1OC`, the cell number change came out at 50%. The AC50 under setting [1] is 7.31 µM [rising, partial curve].
Turning to `Cc1nc(SC(C)C(=O)NC2CCCC2)c2ccccc2n1` (stereo not given), the cell number change is -2.07%. For the same compound, the AC50 under setting [2] is 6.51 µM [rising, single point].
Regarding `Cc1ccc(C(C)C)c(Oc2nnnn2-c2ccccc2)c1`, the cell number change is -4.37%. In addition, the AC50 under setting [2] was 9.2 µM [rising, partial curve].
Turning to `CN(CC(=O)NC(=O)NC1CCCCC1)Cc1ccccc1`, the cell number change is -5.58%. For the same compound, the AC50 under setting [1] is 0.0651 µM [rising, full curve, poor fit].
